The source of these data is patent publication US20250177533A1, “PHOTODYNAMIC THERAPY AND DIAGNOSIS” (RMW CHO Group Limited, priority 2021, published 2025).

The subject of this data set is Human ovarian cancer cell line SKOV3. Description: Phototoxicity in SKOV3 cells (660 nm laser or LED, AlamarBlue viability). The note with it: calculated using phototoxicity IC90 vs dark toxicity IC10, SKOV3; phototoxicity by LED where marked *. Type of data set: cell-based. The text has this:
All data are shown as mean±SD (where appropriate).
Media was then replaced with fresh media containing AlamarBlue, and % viable cells remaining assessed as above. […] All measurements were made in quadruplicate.

`CCC1=C(C)c2cc3[nH]c(cc4nc(c(C)c5cc(C)c(cc1n2)[nH]5)[C@@H](CCC(=O)OC)[C@@H]4C)c(C)c3CO` [Compound 3, phyllochlorin 13-hydroxymethyl methyl ester]: the “Therapeutic Index” value is reported as 148.44.

Take `CCC1=C(C)c2cc3[nH]c(cc4nc(c(C)c5cc(C)c(cc1n2)[nH]5)[C@@H](CCC(=O)N(C)CCOC)[C@@H]4C)c(C)c3COC(=O)NCCC[P+](c1ccccc1)(c1ccccc1)c1ccccc1` [Compound 50, phyllochlorin N-methyl-N-(2-methoxy)ethyl propylamide 13-(N-(3-triphenylphosphoniumpropyl)bromide)carbamate]: the “Therapeutic Index” value is 293.75.

In the case of `CCC1=C(C)c2cc3[nH]c(cc4nc(c(C)c5cc(C)c(cc1n2)[nH]5)[C@@H](CCC(=O)OC)[C@@H]4C)c(C)c3C(C)OCCC[n+]1ccc(C)cc1` (stereo partly drawn) [Compound 28], the “Therapeutic Index” value is reported as 1,625.67.

`CCC1=C(C)c2cc3[nH]c(cc4nc(c(C)c5cc(C)c(cc1n2)[nH]5)[C@@H](CCC(=O)OC)[C@@H]4C)c(C)c3C(C)OCCOCC[n+]1ccccc1` (stereo partly drawn) [Compound 22, phyllochlorin methyl ester 2-(2-pyridiniumethoxy)ethyl ether chloride]: the “Therapeutic Index” value was 557.00.

Turning to “phyllochlorin methyl ester 3-triphenylphosphonium bromide propyl ether [Compound 21]”, the “Therapeutic Index” value was 316.75.

For the compound `CCC1=C(C)c2cc3[nH]c(cc4nc(c(C)c5cc(C)c(cc1n2)[nH]5)[C@@H](CCC(=O)NCCOC)[C@@H]4C)c(C)c3COC(=O)NCCC[P+](c1ccccc1)(c1ccccc1)c1ccccc1` [Compound 52, phyllochlorin N-(2-methoxy)ethyl propylamide 13-(N-(3-triphenylphosphoniumpropyl)bromide)carbamate], the “Therapeutic Index” value was 203.85.

On to `CCC1=C(C)c2cc3[nH]c(cc4nc(c(C)c5cc(C)c(cc1n2)[nH]5)[C@@H](CCC(=O)OC)[C@@H]4C)c(C)c3COC(=O)NCCCOCCC[P+](c1ccccc1)(c1ccccc1)c1ccccc1` [Compound 40, phyllochlorin methyl ester 13-(N-(3-(3-triphenylphosphoniumpropoxy)propyl)chloride)carbamate], for which the “Therapeutic Index” value was 768.13.

For the compound `CCC1=C(C)c2cc3[nH]c(cc4nc(c(C)c5cc(C)c(cc1n2)[nH]5)[C@@H](CCC(=O)NCCOCCO[C@@H]1O[C@H](CO)[C@@H](O)[C@H](O)[C@H]1O)[C@@H]4C)c(C)c3CO[C@@H]1O[C@H](CO)[C@@H](O)[C@H](O)[C@H]1O` [Compound 16, phyllochlorin 13-hydroxymethyl-β-D-glucoside ether-β-D-1-glucose-2-ethoxy-N-ethanamine], the “Therapeutic Index” value is 3.25.

With `CCC1=C(C)c2cc3[nH]c(cc4nc(c(C)c5cc(C)c(cc1n2)[nH]5)[C@@H](CCCO[C@@H]1O[C@H](CO)[C@@H](O)[C@H](O)[C@H]1O)[C@@H]4C)c(C)c3CO[C@@H]1O[C@H](CO)[C@@H](O)[C@H](O)[C@H]1O` [Compound 33, phyllochlorin 13-hydroxymethyl-3-hydroxypropyl-bis-β-D-glucoside ether], the “Therapeutic Index” value is 18.41.

For `CCC1=C(C)c2cc3[nH]c(cc4nc(c(C)c5cc(C)c(cc1n2)[nH]5)[C@@H](CCC(=O)OC)[C@@H]4C)c(C)c3COC(=O)NCCOC` [Compound 29, phyllochlorin methyl ester 13-(2-methoxyethyl)carbamate], the “Therapeutic Index” value is listed as 346.02.

Regarding `CCC1=C(C)c2cc3[nH]c(cc4nc(c(C)c5cc(C)c(cc1n2)[nH]5)[C@@H](CCC(=O)N(C)CCOCCOCCOCCOCCOCCOC)[C@@H]4C)c(C)c3CO` [Compound 24, phyllochlorin 13-hydroxymethyl N-methyl-N-3,6,9,12,15,18-hexaoxanonadecyl propylamide], the “Therapeutic Index” value was 81.89.

On to `CCC1=C(C)c2cc3[nH]c(cc4nc(c(C)c5cc(C)c(cc1n2)[nH]5)[C@@H](CCC(=O)O)[C@@H]4C)c(C)c3C(C)O` (stereo partly drawn) [Compound 27, phyllochlorin 13-(ethyl-1-alcohol)], for which the “Therapeutic Index” value was 26.50.
